According to patent US20210246191A1 (BIONTECH, published 2021):
Results are given in words; binding and its absence hold for the method and conditions named. Some results given as binding are weak or reduced against the parent protein; the word gives no strength. Where a sequence is shown, tags or fusion partners need not be part of it.

By UniProt entry, the sequences of proteins in these tests, tags left out. Residues count along the entry.
FN-B(8-14) (R&D Systems), EDB with C-terminal domains 8-13 and 1/2 of domain 14 (P02751, residues 1265-1908): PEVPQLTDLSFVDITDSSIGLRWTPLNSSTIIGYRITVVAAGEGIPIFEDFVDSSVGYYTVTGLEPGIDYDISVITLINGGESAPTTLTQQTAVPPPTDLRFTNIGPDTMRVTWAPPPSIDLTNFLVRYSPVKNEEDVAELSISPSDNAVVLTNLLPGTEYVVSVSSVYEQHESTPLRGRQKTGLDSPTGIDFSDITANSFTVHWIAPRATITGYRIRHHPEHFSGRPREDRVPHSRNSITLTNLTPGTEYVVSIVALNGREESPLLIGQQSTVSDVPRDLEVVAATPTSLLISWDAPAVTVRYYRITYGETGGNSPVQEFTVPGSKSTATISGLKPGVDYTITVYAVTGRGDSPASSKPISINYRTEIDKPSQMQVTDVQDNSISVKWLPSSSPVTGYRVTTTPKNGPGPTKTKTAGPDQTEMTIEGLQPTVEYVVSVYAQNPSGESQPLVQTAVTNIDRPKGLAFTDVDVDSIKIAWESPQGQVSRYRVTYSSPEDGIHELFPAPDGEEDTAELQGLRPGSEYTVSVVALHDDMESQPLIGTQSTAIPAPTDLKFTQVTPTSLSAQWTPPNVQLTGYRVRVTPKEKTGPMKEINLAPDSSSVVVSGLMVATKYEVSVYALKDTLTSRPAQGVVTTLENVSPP
T7-TEV-B (LD BioPharma), a T7-TEV N-terminally flanked EDB domain (P02751, residues 1265-1355): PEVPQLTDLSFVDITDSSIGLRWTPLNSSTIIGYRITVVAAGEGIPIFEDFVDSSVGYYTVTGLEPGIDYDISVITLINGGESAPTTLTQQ

Legend:
[1] = target: FN-B(8-14) (R&D Systems), EDB with C-terminal domains 8-13 and 1/2 of domain 14 (UniProt P02751); assay: ELISA titration of Trx-miniprotein on coated protein (1 µg/well), HRP anti-S-tag antibody, single values [continued), panel MCopt 1.0-3]
[2] = target: FN-B(8-14) (R&D Systems), EDB with C-terminal domains 8-13 and 1/2 of domain 14 (UniProt P02751); assay: ELISA, 200 nM Trx-miniprotein on coated protein (1 µg/well), duplicates
[3] = target: T7-TEV-B (LD BioPharma), a T7-TEV N-terminally flanked EDB domain (UniProt P02751); assay: as above
[4] = target: FN-B(8-14) (R&D Systems), EDB with C-terminal domains 8-13 and 1/2 of domain 14 (UniProt P02751); assay: ELISA titration, ten concentrations of Trx-fusion on coated protein (1 µg/well), anti-s-tag-HRP (FIG. 6)
[5] = target: FN-B(8-14) (R&D Systems), EDB with C-terminal domains 8-13 and 1/2 of domain 14 (UniProt P02751); assay: ELISA, 200 nM Trx-fusion on coated protein (1 µg/well) (FIG. 5)
[6] = target: T7-TEV-B (LD BioPharma), a T7-TEV N-terminally flanked EDB domain (UniProt P02751); assay: as above

Measured: binding

PMCTQRKNRIRLCRRDSDCTGACICRGNGYCG (designed binder, not shown: large carriers; small tags and cut ends) [Trx-MC-FN-010 (thioredoxin fusion of cystine-knot miniprotein MC-FN-010)]
binds: all assays above
